Data from the supplement of paper PMC10849652.
The list shows a part of the results.

Chains of the proteins cited; added tags and fusions are not shown. Lines headed by an entry give the natural chain unless they say otherwise; changes in a name come on top.
UniProt Q9BUB7: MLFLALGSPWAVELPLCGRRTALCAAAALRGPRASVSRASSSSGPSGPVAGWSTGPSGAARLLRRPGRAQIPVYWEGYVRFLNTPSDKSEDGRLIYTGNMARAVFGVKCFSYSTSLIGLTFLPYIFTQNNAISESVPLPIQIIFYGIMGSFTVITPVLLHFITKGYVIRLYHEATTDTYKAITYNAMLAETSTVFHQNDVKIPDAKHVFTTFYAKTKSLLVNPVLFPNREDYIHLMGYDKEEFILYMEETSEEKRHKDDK
UniProt Q8NFQ8: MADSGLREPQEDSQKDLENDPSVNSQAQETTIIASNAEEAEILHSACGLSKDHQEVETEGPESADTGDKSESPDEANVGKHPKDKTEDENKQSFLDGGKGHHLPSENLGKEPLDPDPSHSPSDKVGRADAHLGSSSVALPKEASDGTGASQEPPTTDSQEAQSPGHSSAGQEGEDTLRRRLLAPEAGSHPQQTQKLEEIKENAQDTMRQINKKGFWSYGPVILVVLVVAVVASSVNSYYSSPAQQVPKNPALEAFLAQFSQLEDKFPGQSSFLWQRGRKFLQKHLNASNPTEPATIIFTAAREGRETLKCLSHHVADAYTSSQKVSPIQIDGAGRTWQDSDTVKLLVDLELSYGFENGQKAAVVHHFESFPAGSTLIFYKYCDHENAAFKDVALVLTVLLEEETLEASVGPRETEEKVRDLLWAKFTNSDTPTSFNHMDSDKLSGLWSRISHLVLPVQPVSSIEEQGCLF
UniProt O14787: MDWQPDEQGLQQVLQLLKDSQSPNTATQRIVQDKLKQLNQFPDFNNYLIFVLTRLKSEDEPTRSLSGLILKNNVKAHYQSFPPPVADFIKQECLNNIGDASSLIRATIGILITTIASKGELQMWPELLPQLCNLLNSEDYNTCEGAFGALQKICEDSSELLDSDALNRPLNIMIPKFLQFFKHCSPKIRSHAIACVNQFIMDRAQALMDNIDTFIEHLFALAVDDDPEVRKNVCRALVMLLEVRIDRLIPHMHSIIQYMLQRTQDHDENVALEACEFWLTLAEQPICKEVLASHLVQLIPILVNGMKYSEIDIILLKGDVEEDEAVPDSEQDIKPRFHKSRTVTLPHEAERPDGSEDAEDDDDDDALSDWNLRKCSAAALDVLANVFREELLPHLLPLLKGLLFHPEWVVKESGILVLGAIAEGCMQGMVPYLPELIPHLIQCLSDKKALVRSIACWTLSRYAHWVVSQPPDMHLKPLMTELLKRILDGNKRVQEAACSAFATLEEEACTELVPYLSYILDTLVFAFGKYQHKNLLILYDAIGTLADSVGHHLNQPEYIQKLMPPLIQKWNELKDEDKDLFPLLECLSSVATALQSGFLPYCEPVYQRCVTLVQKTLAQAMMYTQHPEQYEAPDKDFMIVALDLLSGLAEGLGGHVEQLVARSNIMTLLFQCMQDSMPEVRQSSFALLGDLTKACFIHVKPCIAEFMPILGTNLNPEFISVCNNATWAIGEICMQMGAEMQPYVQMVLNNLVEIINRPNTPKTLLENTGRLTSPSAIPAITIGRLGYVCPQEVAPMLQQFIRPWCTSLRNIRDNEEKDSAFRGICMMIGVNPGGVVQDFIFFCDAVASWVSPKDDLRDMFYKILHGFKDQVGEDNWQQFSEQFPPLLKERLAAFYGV
UniProt O60784, whole entry, looked up: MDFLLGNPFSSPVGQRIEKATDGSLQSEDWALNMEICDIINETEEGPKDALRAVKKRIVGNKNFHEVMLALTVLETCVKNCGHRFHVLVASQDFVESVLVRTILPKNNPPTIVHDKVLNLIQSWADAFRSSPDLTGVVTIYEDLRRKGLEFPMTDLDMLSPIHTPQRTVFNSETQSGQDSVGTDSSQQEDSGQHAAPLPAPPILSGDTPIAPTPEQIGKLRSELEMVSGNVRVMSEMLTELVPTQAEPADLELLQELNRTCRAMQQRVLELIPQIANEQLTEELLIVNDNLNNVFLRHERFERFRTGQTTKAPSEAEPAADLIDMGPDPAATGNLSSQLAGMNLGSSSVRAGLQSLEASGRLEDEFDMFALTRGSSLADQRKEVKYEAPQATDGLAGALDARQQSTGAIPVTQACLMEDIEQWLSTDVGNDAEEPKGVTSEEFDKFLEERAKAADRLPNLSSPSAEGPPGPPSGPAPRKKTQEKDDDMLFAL
UniProt O00220, whole entry, looked up: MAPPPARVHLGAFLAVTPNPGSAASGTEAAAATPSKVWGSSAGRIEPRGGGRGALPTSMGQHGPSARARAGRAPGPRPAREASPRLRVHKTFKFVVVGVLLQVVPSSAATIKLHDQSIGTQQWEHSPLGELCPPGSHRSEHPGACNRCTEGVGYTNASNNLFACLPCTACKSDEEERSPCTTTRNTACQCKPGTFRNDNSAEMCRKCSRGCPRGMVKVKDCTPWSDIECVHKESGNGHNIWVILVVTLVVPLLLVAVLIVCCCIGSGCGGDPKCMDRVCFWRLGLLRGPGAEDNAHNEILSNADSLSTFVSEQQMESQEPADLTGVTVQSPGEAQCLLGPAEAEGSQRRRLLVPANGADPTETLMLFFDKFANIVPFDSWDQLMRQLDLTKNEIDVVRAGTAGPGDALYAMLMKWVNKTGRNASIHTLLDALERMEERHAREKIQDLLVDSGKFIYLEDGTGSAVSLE
UniProt Q6ZVM7: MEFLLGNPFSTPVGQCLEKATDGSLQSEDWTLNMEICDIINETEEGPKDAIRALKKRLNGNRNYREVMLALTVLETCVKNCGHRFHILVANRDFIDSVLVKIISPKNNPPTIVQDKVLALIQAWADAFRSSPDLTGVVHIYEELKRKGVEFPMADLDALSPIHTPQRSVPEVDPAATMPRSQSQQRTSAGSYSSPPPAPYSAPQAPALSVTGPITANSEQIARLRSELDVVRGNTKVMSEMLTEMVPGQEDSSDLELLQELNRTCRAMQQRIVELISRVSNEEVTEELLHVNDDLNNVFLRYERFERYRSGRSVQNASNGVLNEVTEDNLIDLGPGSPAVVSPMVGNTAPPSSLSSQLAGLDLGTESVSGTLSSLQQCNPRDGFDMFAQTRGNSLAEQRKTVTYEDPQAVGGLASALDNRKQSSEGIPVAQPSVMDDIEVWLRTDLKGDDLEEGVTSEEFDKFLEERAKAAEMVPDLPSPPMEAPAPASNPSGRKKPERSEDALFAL
UniProt Q9NZR1: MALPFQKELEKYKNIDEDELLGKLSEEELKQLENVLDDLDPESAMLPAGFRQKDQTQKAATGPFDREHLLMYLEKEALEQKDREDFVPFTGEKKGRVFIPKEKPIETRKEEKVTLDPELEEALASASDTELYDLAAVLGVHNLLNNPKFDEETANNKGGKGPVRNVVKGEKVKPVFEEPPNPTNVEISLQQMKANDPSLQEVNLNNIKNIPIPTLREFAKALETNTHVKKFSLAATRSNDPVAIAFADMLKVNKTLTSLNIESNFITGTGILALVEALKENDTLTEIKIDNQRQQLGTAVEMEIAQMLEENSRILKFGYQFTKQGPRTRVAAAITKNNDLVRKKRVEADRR
UniProt Q15785: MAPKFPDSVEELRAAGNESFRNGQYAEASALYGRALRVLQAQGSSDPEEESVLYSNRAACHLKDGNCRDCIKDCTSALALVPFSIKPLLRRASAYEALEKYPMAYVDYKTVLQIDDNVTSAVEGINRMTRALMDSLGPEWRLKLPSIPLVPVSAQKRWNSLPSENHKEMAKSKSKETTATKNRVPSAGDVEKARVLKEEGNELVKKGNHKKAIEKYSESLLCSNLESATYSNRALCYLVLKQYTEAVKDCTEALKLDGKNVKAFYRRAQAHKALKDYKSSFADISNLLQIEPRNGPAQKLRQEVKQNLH
UniProt A0PJW6: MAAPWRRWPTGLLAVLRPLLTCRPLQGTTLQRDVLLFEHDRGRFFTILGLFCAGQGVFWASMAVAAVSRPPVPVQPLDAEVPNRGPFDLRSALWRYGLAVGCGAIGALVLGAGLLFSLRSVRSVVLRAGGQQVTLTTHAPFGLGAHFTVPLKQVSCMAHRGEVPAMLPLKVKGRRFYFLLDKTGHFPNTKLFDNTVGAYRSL
UniProt Q9P0U1: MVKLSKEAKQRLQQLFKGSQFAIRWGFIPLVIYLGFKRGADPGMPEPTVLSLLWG
UniProt Q96S44: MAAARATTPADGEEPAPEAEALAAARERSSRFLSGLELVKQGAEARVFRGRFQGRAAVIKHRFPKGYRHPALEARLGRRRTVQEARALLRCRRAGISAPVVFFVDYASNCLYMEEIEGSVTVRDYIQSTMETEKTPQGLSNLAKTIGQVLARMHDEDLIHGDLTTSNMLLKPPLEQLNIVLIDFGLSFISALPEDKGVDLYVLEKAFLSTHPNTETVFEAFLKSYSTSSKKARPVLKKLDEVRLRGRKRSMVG
UniProt Q8N511: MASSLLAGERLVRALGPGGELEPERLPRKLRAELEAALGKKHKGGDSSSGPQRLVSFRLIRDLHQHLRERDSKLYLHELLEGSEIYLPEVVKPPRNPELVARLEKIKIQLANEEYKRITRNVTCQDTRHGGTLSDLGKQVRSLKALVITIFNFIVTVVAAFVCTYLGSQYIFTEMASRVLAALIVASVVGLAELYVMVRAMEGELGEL
UniProt P28908: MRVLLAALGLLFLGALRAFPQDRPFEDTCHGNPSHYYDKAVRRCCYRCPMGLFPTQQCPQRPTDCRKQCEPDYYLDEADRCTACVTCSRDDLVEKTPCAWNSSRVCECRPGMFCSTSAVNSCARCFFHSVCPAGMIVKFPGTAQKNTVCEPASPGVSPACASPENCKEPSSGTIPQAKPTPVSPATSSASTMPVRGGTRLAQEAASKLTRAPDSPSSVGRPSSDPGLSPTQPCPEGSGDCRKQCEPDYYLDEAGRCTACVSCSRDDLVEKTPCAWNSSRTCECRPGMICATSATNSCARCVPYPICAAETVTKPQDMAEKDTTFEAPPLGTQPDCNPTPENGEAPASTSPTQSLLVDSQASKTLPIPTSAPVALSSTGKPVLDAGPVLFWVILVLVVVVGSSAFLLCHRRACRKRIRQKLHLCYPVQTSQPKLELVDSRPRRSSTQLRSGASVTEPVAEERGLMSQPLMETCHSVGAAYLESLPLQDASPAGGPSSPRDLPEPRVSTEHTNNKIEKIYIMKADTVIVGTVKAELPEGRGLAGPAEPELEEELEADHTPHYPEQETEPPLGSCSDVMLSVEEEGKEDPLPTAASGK
UniProt P63313: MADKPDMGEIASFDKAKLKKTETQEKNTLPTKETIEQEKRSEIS
UniProt Q92973: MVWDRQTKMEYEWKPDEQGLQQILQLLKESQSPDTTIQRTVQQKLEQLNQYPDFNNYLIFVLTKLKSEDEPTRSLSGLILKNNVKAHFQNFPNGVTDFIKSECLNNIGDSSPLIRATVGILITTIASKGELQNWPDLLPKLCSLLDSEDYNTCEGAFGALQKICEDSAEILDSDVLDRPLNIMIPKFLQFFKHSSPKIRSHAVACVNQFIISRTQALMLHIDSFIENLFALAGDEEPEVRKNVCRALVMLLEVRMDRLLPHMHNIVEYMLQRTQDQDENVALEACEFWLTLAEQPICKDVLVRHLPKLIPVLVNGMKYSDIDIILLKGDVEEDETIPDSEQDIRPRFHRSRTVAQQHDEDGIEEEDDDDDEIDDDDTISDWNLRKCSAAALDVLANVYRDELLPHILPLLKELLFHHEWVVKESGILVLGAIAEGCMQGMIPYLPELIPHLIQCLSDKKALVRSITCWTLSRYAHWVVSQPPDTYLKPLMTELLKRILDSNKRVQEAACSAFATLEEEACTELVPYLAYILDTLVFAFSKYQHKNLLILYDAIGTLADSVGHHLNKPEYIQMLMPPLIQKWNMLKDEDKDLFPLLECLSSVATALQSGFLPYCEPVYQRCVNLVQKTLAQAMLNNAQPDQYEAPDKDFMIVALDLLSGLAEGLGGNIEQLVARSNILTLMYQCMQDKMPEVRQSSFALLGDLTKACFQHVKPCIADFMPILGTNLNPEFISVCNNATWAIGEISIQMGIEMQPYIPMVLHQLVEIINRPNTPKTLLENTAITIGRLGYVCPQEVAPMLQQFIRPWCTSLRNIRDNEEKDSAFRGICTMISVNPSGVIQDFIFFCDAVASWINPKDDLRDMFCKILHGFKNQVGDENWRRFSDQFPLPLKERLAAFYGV
UniProt P42167: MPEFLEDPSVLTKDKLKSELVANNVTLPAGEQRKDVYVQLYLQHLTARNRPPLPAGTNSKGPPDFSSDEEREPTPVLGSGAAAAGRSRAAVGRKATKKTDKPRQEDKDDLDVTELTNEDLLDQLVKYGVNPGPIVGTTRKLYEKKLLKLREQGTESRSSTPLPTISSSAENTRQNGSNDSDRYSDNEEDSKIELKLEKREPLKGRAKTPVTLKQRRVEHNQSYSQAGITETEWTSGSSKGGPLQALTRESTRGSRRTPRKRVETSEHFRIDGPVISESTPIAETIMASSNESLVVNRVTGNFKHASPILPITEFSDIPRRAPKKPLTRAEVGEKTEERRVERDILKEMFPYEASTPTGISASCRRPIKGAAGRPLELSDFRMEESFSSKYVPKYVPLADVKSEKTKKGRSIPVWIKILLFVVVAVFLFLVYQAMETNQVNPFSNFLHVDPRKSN

Key:
Assay in all cases: log2 fold change, soluble protein after heating vs DMSO (PISA); higher = thermal stabilisation; K562 lysate, 10 uM; active = over 0.2 and 3.5 SD of the protein, either way, in both replicates (recomputed)
[1] = compound: C1=CC=C(C=C1)[C@H](COC2=CC3=C(C=C2)NC(=O)N3)NC(=O)C4=CC=CN(C4=O)CC5=CC(=C(C=C5)F)F
Outline: (§1)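 K562 pellets were dounce-homogenised in PBS pH 7.4 containing 1 mM MgCl2, and the crude extract, at 1 mg/mL protein, was exposed to 10 μM compound for 30 min. Aliquots were heated for 3 min across 48°C-58°C, pooled, brought to 0.5% NP-40 at 4°C and spun at 21,000xg for 90 min, with the supernatant taken as soluble protein. TMTpro 16plex LC-MS/MS with equalised channel sums quantified that protein. Values are log-two fold changes in thermal stability relative to solvent controls, taken from duplicates.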

[2] = compound: CC1=C(SC2=C1C(=N[C@H](C3=NN=C(N32)C)CC(=O)N)C4=CC=C(C=C4)Cl)C
Outline: as §1

[3] = compound: CC1=C2C(=CC=C1)N=C(N(C2=O)C3=CC=CC=C3C)CN4C=NC5=C(N=CN=C54)N
Outline: as §1

[4] = compound: Cc1sc2c(c1C)C(c1ccc(Cl)cc1)=N[C@@H](CC(=O)OC(C)(C)C)c1nnc(C)n1-2
Outline: as §1

[5] = compound: c1ccc([C@@H]2C[C@H]2NC2CCNCC2)cc1
Outline: as §1

Measured: log2 fold change

TMEM33 (UniProt P57088)
inactive: [1] -0.002 | [2] 0.023 | [3] -0.015 | [4] -0.02 | [5] 0.034

TMEM70 (UniProt Q9BUB7)
inactive: [1] -0.029 | [2] 0.045 | [3] 0.021 | [4] 0.013 | [5] -0.083

TOR1AIP2 (UniProt Q8NFQ8)
inactive: [1] 0.007 | [2] 0.02 | [3] -0.018 | [4] 0.03 | [5] 0.028

TOPBP1 (UniProt Q92547)
inactive: [1] 0.012 | [2] 0.001 | [3] 0.026 | [4] -0.016 | [5] 0.099

TMEM63B (UniProt Q5T3F8)
inactive: [1] 0.064 | [2] -0.07 | [3] -0.075 | [4] -0.029 | [5] -0.033

TOLLIP (UniProt Q9H0E2)
inactive: [1] 0.071 | [2] -0.063 | [3] -0.023 | [4] -0.003 | [5] -0.006

TNPO2 (UniProt O14787)
inactive: [1] 0.006 | [2] 0.018 | [3] 0 | [4] 0.026 | [5] 0.028

TOM1 isoform 2 (UniProt O60784)
inactive: [1] 0.041 | [2] 0.047 | [3] -0.005 | [4] 0.012 | [5] 0.07

TNFRSF10A (UniProt O00220)
inactive: [1] 0 | [2] -0.054 | [3] 0.033 | [4] -0.008 | [5] 0.127

TOM1L2 (UniProt Q6ZVM7)
inactive: [1] 0.073 | [2] -0.111 | [3] -0.017 | [4] -0.065 | [5] 0.026

TMOD2 (UniProt Q9NZR1)
inactive: [1] -0.068 | [2] -0.042 | [3] 0.014 | [4] 0.039 | [5] 0

TOMM34 (UniProt Q15785)
inactive: [1] -0.02 | [2] -0.001 | [3] 0.001 | [4] -0.003 | [5] 0.029

Quoted at random: two entries already listed
TOR1AIP2 (UniProt Q8NFQ8)
inactive: [1] 0.007 | [2] 0.02 | [3] -0.018 | [4] 0.03 | [5] 0.028

TMEM63B (UniProt Q5T3F8)
inactive: [1] 0.064 | [2] -0.07 | [3] -0.075 | [4] -0.029 | [5] -0.033

Next part

TMEM223 (UniProt A0PJW6)
inactive: [1] 0.221 | [2] -0.016 | [3] -0.051 | [4] 0.118 | [5] 0.008

TOMM7 (UniProt Q9P0U1)
inactive: [1] 0.038 | [2] -0.025 | [3] -0.001 | [4] 0.017 | [5] -0.036

TP53RK (UniProt Q96S44)
inactive: [1] 0.013 | [2] 0.021 | [3] -0.003 | [4] 0.073 | [5] 0.09

TMEM199 (UniProt Q8N511)
inactive: [1] 0.005 | [2] -0.002 | [3] 0.07 | [4] -0.046 | [5] -0.029

TNFRSF8 (UniProt P28908)
inactive: [1] -0.003 | [2] -0.086 | [3] 0.032 | [4] -0.038 | [5] 0.003

TMEM69 (UniProt Q5SWH9)
inactive: [1] 0.046 | [2] -0.062 | [3] -0.031 | [4] -0.213 | [5] -0.099

TMSB10 (UniProt P63313)
inactive: [1] 0.022 | [2] -0.018 | [3] -0.077 | [4] 0.167 | [5] 0.085

TMTC3 (UniProt Q6ZXV5)
inactive: [1] -0.073 | [2] -0.002 | [3] 0.02 | [4] 0.035 | [5] 0.053

TMEM214 (UniProt Q6NUQ4)
inactive: [1] -0.087 | [2] -0.002 | [3] 0 | [4] 0.052 | [5] 0.037

TNFRSF1B (UniProt P20333)
inactive: [1] 0.143 | [2] -0.046 | [3] -0.086 | [4] -0.183 | [5] -0.107

TNPO1 (UniProt Q92973)
inactive: [1] -0.007 | [2] 0.012 | [3] 0.011 | [4] -0.029 | [5] 0.072

TMPO (UniProt P42167)
inactive: [1] -0.017 | [2] 0.044 | [3] -0.042 | [4] 0.042 | [5] -0.023
